Data reported in patent US10525115B2 (Immatics Biotechnologies GmbH, priority 2014, dated 2020).

Legend:
primary AML samples = test: HLA class I ligandome analysis (W6/32 immunoaffinity purification, LC-MS/MS) of primary AML samples; design: species or system human; conditions: for Number of positive AMLs: AML patients (n=15); for Number of positive AMLs [rep. frequency]: representation frequency of the source protein (LiTAA) in AML patients (n=15); for rep. frequency: representation frequency in AML patients (n=15)
[1] = system: cancer tissues in comparison to non-cancerous tissues and organs; test: Presentation profile / over-presentation by label-free LC-MS (XPRESIDENT), tumor versus normal tissues, other proliferative diseases; design: species or system human; conditions: other proliferative diseases / organs (other than AML) that over- or exclusively present the peptide; Table 5
[2] = HLA class I ligandome, count for the HLA ligand (LiTAP) or, on protein lines, for the source protein (LiTAA)

Row | Substance | Number of positive AMLs (primary AML samples; [2]) | Number of positive AMLs [rep. frequency] (primary AML samples) | further results
1 | 1 (AEQFRLEQI; listed as Homo sapiens) [compound 1] | 1 |  | Proliferative disease and location thereof [1]: colon or rectum, lung, small cell carcinoma
2 | 2 (FTAEFSSRY; listed as Homo sapiens) [compound 2] | 2 |  | Proliferative disease and location thereof [1]: colon or rectum, lung, small cell carcinoma
3 | 22 (TTNHPINPK; listed as Homo sapiens) [compound 22] |  |  | Proliferative disease and location thereof [1]: malignant fibrous histiocytoma
4 | 26 (EEVGDFIQRY; listed as Homo sapiens) [compound 26] | 1 |  | 
5 | 27 (EVGDFIQRY; listed as Homo sapiens) [compound 27] | 4 |  | 
6 | 28 (MKDLSLGGVL; listed as Homo sapiens) [compound 28] | 1 |  | 
7 | 54 (AVIEAEKIAQV; listed as Homo sapiens) [compound 54] | 2 |  | 
8 | 55 (DRIEVVNML; listed as Homo sapiens) [compound 55] | 1 |  | 
9 | 56 (IEAEKIAQV; listed as Homo sapiens) [compound 56] | 1 |  | 
10 | 57 (IEDLKAQIL; listed as Homo sapiens) [compound 57] | 1 |  | 
11 | 58 (YLLESVNKL; listed as Homo sapiens) [compound 58] | 3 |  | 
12 | 62 (ALLGHILLH; listed as Homo sapiens) [compound 62] | 1 |  | 
13 | 63 (ALLPHLYTL; listed as Homo sapiens) [compound 63] | 2 |  | 
14 | 64 (HVAGETVAR; listed as Homo sapiens) [compound 64] | 1 |  | 
15 | 65 (KVWPGSTAF; listed as Homo sapiens) [compound 65] | 1 |  | 
16 | 67 (RVYNTDPLKEK; listed as Homo sapiens) [compound 67] | 4 |  | 
17 | 86 (KELEHLSHI; listed as Homo sapiens) [compound 86] | 1 |  | 
18 | 87 (REMENYEKI; listed as Homo sapiens) [compound 87] | 2 |  | 
19 | 88 (VLLSTIHEL; listed as Homo sapiens) [compound 88] | 2 |  | 
20 | 89 (KTYTKSSHLK; listed as Homo sapiens) [compound 89] | 4 |  | 
21 | 90 (EIIEKNFDY; listed as Homo sapiens) [compound 90] | 3 |  | 
22 | 91 (GTEEAPKVFK; listed as Homo sapiens) [compound 91] | 1 |  | 
23 | 92 (KLMAIPLVF; listed as Homo sapiens) [compound 92] | 1 |  | 
24 | 125 (SQDKKIHVY; listed as Homo sapiens) [compound 125] | 1 |  | 
25 | 126 (YHADIYDKV; listed as Homo sapiens) [compound 126] | 3 |  | 
26 | 135 (DAVNQNTKLL; listed as Homo sapiens) [compound 135] | 1 |  | 

Row | Substance | Number of positive AMLs (primary AML samples; [2]) | Number of positive AMLs [rep. frequency] (primary AML samples) | further results
27 | 136 (HHILADVSL; listed as Homo sapiens) [compound 136] | 1 |  | 
28 | 137 (YPSEKRGEL; listed as Homo sapiens) [compound 137] | 1 |  | 
29 | 149 (HEADKTYML; listed as Homo sapiens) [compound 149] | 1 |  | 
30 | 150 (KFFEEVLLF; listed as Homo sapiens) [compound 150] | 1 |  | 
31 | 151 (RVMPSSFFL; listed as Homo sapiens) [compound 151] | 1 |  | 
32 | 192 (AHVIDKFLL; listed as Homo sapiens) [compound 192] | 2 |  | 
33 | 193 (KAGGEFLLRY; listed as Homo sapiens) [compound 193] | 1 |  | 
34 | 215 (FAALHGPAL; listed as Homo sapiens) [compound 215] | 2 |  | 
35 | 216 (RMANLMGIEF; listed as Homo sapiens) [compound 216] | 1 |  | 
36 | 219 (IEHVFVTDV; listed as Homo sapiens) [compound 219] | 2 |  | 
37 | 220 (KESPTSVGF; listed as Homo sapiens) [compound 220] | 1 |  | 
38 | 231 (ESAALIHHY; listed as Homo sapiens) [compound 231] | 2 |  | 
39 | 232 (YQRETPQV; listed as Homo sapiens) [compound 232] | 1 |  | 
40 | 283 (KLMAMFLEY; listed as Homo sapiens) [compound 283] |  |  | Number of positive AMLs (primary AML samples; HLA ligand (LiTAP)): 1
41 | 284 (YTVEKREGY; listed as Homo sapiens) [compound 284] |  |  | Number of positive AMLs (primary AML samples; HLA ligand (LiTAP)): 2
42 | APLP2 (SLLYKVPYV) | 5 | [33.3%] | 
43 | C3AR1 | 3 | [20.0%] | 
44 | CEP76 (VLGGKAFLEHL) |  |  | Number of positive AMLs (primary AML samples; source protein (LiTAA)): 3; rep. frequency (primary AML samples; source protein (LiTAA)): [20.0%]
45 | DGKZ | 5 | [33.3%] | 
46 | DHX33 |  |  | Number of positive AMLs (primary AML samples; source protein (LiTAA)): 3; rep. frequency (primary AML samples; source protein (LiTAA)): [20.0%]
47 | DMD | 3 | [20.0%] | 
48 | EMILIN2 | 4 | [26.7%] | 
49 | ERCC1 | 3 | [20.0%] | 
50 | ERLIN1: HLA ligand source protein identified exclusively in the FLT3-ITD subset (AVIEAEKIAQV) | 4 | [26.7%] | representation in FLT3-ITD subset (positive/total) (primary AML samples; FLT3-ITD AML n=8, HLA class I, identified exclusively in this subset): 4/8
51 | FNDC3B | 4 | [26.7%] | 
52 | GAA | 4 | [26.7%] | 

Row | Substance | Number of positive AMLs (primary AML samples; [2]) | Number of positive AMLs [rep. frequency] (primary AML samples) | further results
53 | GOLGA7 |  |  | Number of positive AMLs (primary AML samples; source protein (LiTAA)): 3; rep. frequency (primary AML samples; source protein (LiTAA)): [20.0%]
54 | ITGA5 | 5 | [33.3%] | 
55 | KIF20B | 4 | [26.7%] | 
56 | KLF2 | 4 | [26.7%] | 
57 | MARK3 | 3 | [20.0%] | 
58 | NBN | 3 | [20.0%] | 
59 | OPRL1 | 4 | [26.7%] | 
60 | PIK3R2 (SVVDLINHY) | 3 | [20.0%] | 
61 | PLXND1 | 7 | [46.7%] | 
62 | PRR12 |  |  | Number of positive AMLs (primary AML samples; source protein (LiTAA)): 3; rep. frequency (primary AML samples; source protein (LiTAA)): [20.0%]
63 | RHOT1 |  |  | Number of positive AMLs (primary AML samples; source protein (LiTAA)): 3; rep. frequency (primary AML samples; source protein (LiTAA)): [20.0%]
64 | SDAD1 |  |  | Number of positive AMLs (primary AML samples; source protein (LiTAA)): 3; rep. frequency (primary AML samples; source protein (LiTAA)): [20.0%]
65 | SHANK3 | 4 | [26.7%] | 
66 | SORCS2 |  |  | Number of positive AMLs (primary AML samples; source protein (LiTAA)): 3; rep. frequency (primary AML samples; source protein (LiTAA)): [20.0%]
67 | TARBP1 | 3 | [20.0%] | 
68 | TMEM164 | 4 | [26.7%] | 
69 | TOP1MT (KLQEQLAQL) |  |  | Number of positive AMLs (primary AML samples; source protein (LiTAA)): 3; rep. frequency (primary AML samples; source protein (LiTAA)): [20.0%]
70 | TTLL12 | 3 | [20.0%] | 
71 | UFD1L | 4 | [26.7%] | 
72 | VCPIP1 | 4 | [26.7%] | 
73 | WDR45B | 4 | [26.7%] | 
74 | ZKSCAN8 | 4 | [26.7%] | 
75 | ZNF264 | 3 | [20.0%] | 
76 | ZNF543 | 4 | [26.7%] | 
77 | ZNF638 | 3 | [20.0%] | 
78 | ZNF805 | 3 | [20.0%] | 
